Results deposited as PubChem BioAssay AID1224828 (NIAID, 2016)
Shown is one part, drawn at random, of about 17,000 reagents. 762 of them (4.5%) count as active. 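Active calls include both raised and lowered p65 entry, mostly lowered; wells with fewer than 50 cells lack a z-score.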 Raw values are not corrected between plates. Entries without a mark were called inactive. The numbers tell different reagents against one gene apart. Some reagents were tested in more than one well and are listed for each.

Test: 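Find genes required for NF-kappaB p65 moving into the nucleus after LPS in mouse macrophages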 (primary screen)
Cell system: mouse RAW264.7 G9 macrophage reporter cells (GFP-p65, Tnf promoter-mCherry)
Reagent: siRNA pool against mouse genes, 100 nM
Time to read-out: 2 days siRNA transfection, then 40 min LPS before fixation
Treatment: LPS (Salmonella minnesota R595) at 10 ng/ml
Detection: 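Imaged p65 nuclear translocation ratio, normalised to the plate median, converted to robust z-scores and averaged across two replicates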
Reading the numbers: p65 translocation robust z-score: higher = more nuclear NF-kappaB p65 after LPS than the plate median; nuclear/cytoplasmic p65 ratio: higher = more nuclear NF-kappaB p65
Hit rule: 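Called active when z exceeds 3.3 or falls under -1.56 (median of Tlr4 controls), giving activity score of at least 50; no calls for control wells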
Meaning of the calls: active = hit (p65 shift raised or lowered); inactive = no clear change

gene symbol	pool no.	p65 translocation robust z-score	nuclear/cytoplasmic p65 ratio, rep 1	nuclear/cytoplasmic p65 ratio, rep 2	low cell count flag
Gzmd	1	-0.79	1.57	1.44	enough cells to score
Ddr1	1	-0.47	1.64	1.3	enough cells to score
Nr2c2	1	1.16	1.64	1.54	enough cells to score
Gtf2a1l	1	-0.87	1.26	1.28	enough cells to score
Yars1	1	0.43	1.46	1.31	enough cells to score
Pik3cg	1	-1.03	1.6	1.19	enough cells to score
Pik3cg	1	-0.33	1.5	1.5	enough cells to score
Ing5	1	0.56	1.59	1.55	enough cells to score
Lrrc61	1	-0.54	1.5	1.75	enough cells to score
Slc25a35	1		1.41	1.58	fewer than 50 cells per well; well left out of scoring
Cldn18	1	-1.02	1.41	1.65	enough cells to score
Cdk16	1	-0.58	1.67	1.24	enough cells to score
Mtm1	1	-0.46	1.34	1.32	enough cells to score
Atp2b2	1	-1.21	1.31	1.45	enough cells to score
Mcl1	1		1.29	1.18	fewer than 50 cells per well; well left out of scoring
Calml3	1	-1.15	1.43	1.59	enough cells to score
Wdr59	1	0.66	1.41	1.59	enough cells to score
Sncg	1	-1.38	1.14	1.15	enough cells to score
Ecm1	1	1.45	1.85	1.38	enough cells to score
D16Ertd472e	1	-0.49	1.43	1.54	enough cells to score
Cd200r3	1	1.6	1.5	1.42	enough cells to score
Chchd10	1		1.88	1.75	fewer than 50 cells per well; well left out of scoring
Igsf5	1	0.27	1.61	1.45	enough cells to score
Vmn2r10	1		1.14	1.2	fewer than 50 cells per well; well left out of scoring
Cfh	1	1.01	1.55	1.56	enough cells to score
Actb	1	0.12	1.67	1.61	enough cells to score
Msantd4	1	1.9	1.7	1.8	enough cells to score
Rims4	1		1.37	1.13	fewer than 50 cells per well; well left out of scoring
Tssk1	1		1.52	1.52	fewer than 50 cells per well; well left out of scoring
Dip2b	1	0.14	1.58	1.76	enough cells to score
Ndufaf5	1		1.22	1.02	fewer than 50 cells per well; well left out of scoring
Gtpbp2	1	-1.88 (active)	1.33	1.3	enough cells to score
Thop1	1	-0.85	1.26	0.996	enough cells to score
Abca3	1	1.61	1.8	1.98	enough cells to score
Rmp24	1	1.18	1.56	1.33	enough cells to score
Or5p4	1		1.42	1.39	fewer than 50 cells per well; well left out of scoring
Muc6	1	0.3	1.77	1.69	enough cells to score
Rnf26	1		1.31	1.08	fewer than 50 cells per well; well left out of scoring
Map4k3	1	1.72	1.96	1.48	enough cells to score
Or52b1	1	1.82	1.69	1.36	enough cells to score
Mrgprb4	1	1.21	1.92	1.83	enough cells to score
Klhl4	1	1.22	1.67	1.64	enough cells to score
Thoc1	1	-0.73	1.49	1.35	enough cells to score
Zfp945	1	0.88	1.5	1.64	enough cells to score
Scyl1	1	-0.63	1.51	1.3	enough cells to score
Mtfr1	1	-0.55	1.37	1.47	enough cells to score
Pigk	1	-0.37	1.25	1.2	enough cells to score
Tmem167b	1	-2.36 (active)	1.06	1.17	enough cells to score
Ccdc43	1	-1.23	1.33	1.65	enough cells to score
Or2q1	1		1.64	1.44	fewer than 50 cells per well; well left out of scoring
Ssbp2	1	0.87	1.53	1.33	enough cells to score
Ikzf3	1	0.01	1.54	1.46	enough cells to score
Tmem38a	1	0.4	1.67	1.54	enough cells to score
Phf11d	1	-1.52	1.22	1.67	enough cells to score
Slc25a38	1	-0.86	1.44	1.71	enough cells to score
Bcl2l13	1	-0.67	1.45	1.58	enough cells to score
Ankfy1	1	-0.14	1.58	1.66	enough cells to score
Atxn2l	1		1.34	1.69	fewer than 50 cells per well; well left out of scoring
Fuca1	1	0.3	1.46	1.42	enough cells to score
Vmn1r172	1		1.18	1.3	fewer than 50 cells per well; well left out of scoring
Ifngr2	1	-0.36	1.44	1.28	enough cells to score
Gsdme	1	-1.64 (active)	1.28	1.14	enough cells to score
Insm2	1	-0.35	1.46	1.31	enough cells to score
Lyzl1	1	0.73	1.95	1.55	enough cells to score
Dock1	1	-1.24	1.25	1.27	enough cells to score
Aptx	1	0.3	1.77	1.56	enough cells to score
D1Pas1	1	0.56	1.55	1.73	enough cells to score
Amhr2	1	0.72	1.89	1.41	enough cells to score
Bltp1	1	0.21	1.59	1.59	enough cells to score
Bltp1	2	0.37	1.28	1.38	enough cells to score
Smim11	1		1.9	1.6	fewer than 50 cells per well; well left out of scoring
C1qtnf1	1	-1.07	1.29	1.3	enough cells to score
Cmah	1	-0.57	1.42	1.78	enough cells to score
Ikzf2	1	0.27	1.52	1.57	enough cells to score
Nup37	1	-0.55	1.62	1.46	enough cells to score

5 neighbouring records already listed, quoted:
gene symbol	pool no.	p65 translocation robust z-score	nuclear/cytoplasmic p65 ratio, rep 1	nuclear/cytoplasmic p65 ratio, rep 2	low cell count flag
Or2q1	1		1.64	1.44	fewer than 50 cells per well; well left out of scoring
Ssbp2	1	0.87	1.53	1.33	enough cells to score
Ikzf3	1	0.01	1.54	1.46	enough cells to score
Tmem38a	1	0.4	1.67	1.54	enough cells to score
Phf11d	1	-1.52	1.22	1.67	enough cells to score
